The text below walks through data of publication PMC9663433.

Chains of the proteins cited; added tags and fusions are not shown. Lines headed by an entry give the natural chain unless they say otherwise; changes in a name come on top. Residues count along the entry.
UniProt Q9NZQ7: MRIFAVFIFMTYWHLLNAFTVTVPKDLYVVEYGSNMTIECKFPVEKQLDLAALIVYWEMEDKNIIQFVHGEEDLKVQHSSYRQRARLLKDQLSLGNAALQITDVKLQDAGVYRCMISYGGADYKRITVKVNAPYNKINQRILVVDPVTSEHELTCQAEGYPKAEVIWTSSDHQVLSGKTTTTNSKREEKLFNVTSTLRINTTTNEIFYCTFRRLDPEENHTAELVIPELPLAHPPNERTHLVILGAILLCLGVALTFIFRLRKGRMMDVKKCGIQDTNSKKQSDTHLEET
endogenous PD-L1 (MDA-MB-231 cells) (human (endogenous in MDA-MB-231)): residues 19-290 of Q9NZQ7
UniProt Q9BVT8: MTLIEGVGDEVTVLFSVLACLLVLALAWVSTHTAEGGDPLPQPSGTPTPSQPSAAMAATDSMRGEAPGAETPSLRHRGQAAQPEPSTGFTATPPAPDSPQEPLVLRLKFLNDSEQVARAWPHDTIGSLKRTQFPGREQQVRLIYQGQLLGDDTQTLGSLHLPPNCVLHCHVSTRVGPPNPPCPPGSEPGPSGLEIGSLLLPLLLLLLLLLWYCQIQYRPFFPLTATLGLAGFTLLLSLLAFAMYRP

No constants are given. Whether binding was seen depends on the method and setting. Binding seen in cells or lysates may run through a third protein. Some binding calls cover weakened binding; strength is not graded here.

Test [1] addresses PD-L1-HA (human) (UniProt Q9NZQ7). Nature of the test: co-IP; transfected HEK-293T cells, lysates in NETN buffer; FLAG-M2 or HA magnetic beads; immunoblot; in Fig. 3a, b cells treated with 5 μg/ml tunicamycin for 12 h or not, or 10 µM MG132 for 6 h. On the technique in general: In western blotting, separated proteins are transferred to a membrane and probed.
Test [2] deals with PD-L1-Flag truncation: Extracellular Domain (ECD) (human) (UniProt Q9NZQ7). The description is as above.
Test [3] concerns the target endogenous PD-L1 (MDA-MB-231 cells) (human (endogenous in MDA-MB-231)) (UniProt Q9NZQ7). Put plainly: co-IP; MDA-MB-231 lysates in NETN buffer; primary antibody or control IgG, protein A/G magnetic beads, 4 °C; immunoblot; in some panels cells treated with 10 µM MG132 for 6 h, IFN-γ, c-Myc overexpression, TMUB1 overexpression (Fig. 3n) or 10 µM PTPR for 12 h (Fig. 6k).
Test [4] has the same target. Nature of the test: co-IP; ER fraction of MDA-MB-231 cells; PD-L1 and TMUB1/HUWE1 (Fig. 3f).
Test [5] shares this target. Put plainly: co-IP; endogenous HUWE1 and PD-L1 in MDA-MB-231 cells with TMUB1 overexpression or not; IgG as negative control (Fig. 3j).
Test [6] concerns the target PD-L1-HA (human) (UniProt Q9NZQ7). Put plainly: co-IP; TMUB1-Flag and PD-L1-HA in HEK-293T cells untreated or treated with 10 µM PTPR-FITC for 12 h (Fig. 6i); the synthetic peptide added to the cells as competitor; only the binder purified.
The target of test [7] is endogenous PD-L1 (MDA-MB-231 cells) (human (endogenous in MDA-MB-231)) (UniProt Q9NZQ7). Nature of the test: co-IP; MDA-MB-231 lysates in NETN buffer; primary antibody or control IgG, protein A/G magnetic beads, 4 °C; immunoblot; in some panels cells treated with 10 µM MG132 for 6 h, IFN-γ, c-Myc overexpression, TMUB1 overexpression (Fig. 3n) or 10 µM PTPR for 12 h (Fig. 6k). The source holds these as a separate data set.

Turning to “HUWE1-Flag (from UniProt Q7Z6Z7 1-4374) (enzyme)”, the binding entry in test [1] was “binds”. As for “HUWE1-HA (HEK-293T cells) (from UniProt Q7Z6Z7 1-4374) (enzyme)”, in test [2], the binding result is listed as “binds”. As to “HUWE1-HA (MDA-MB-231 cells) (from UniProt Q7Z6Z7 1-4374) (enzyme)”, the binding result in test [3] is “binds”. With “endogenous HUWE1 (MDA-MB-231 cells) (from UniProt Q7Z6Z7 1-4374) (enzyme)”, the binding result in test [4], in test [3] and in test [5] was “binds” in each case.

B1: PTPR (Peptide of TMUB1 PD-L1 Regulatory domain) (peptide, UniProt Q9BVT8 88-102)
peptide: GFTATPPAPDSPQEP
modifications: FITC (position not given)
Consider B1, for which, in test [6], the binding entry was “binds”.

B2: STT3A (enzyme, UniProt P46977 1-705)
chain: MTKFGFLRLSYEKQDTLLKLLILSMAAVLSFSTRLFAVLRFESVIHEFDPYFNYRTTRFLAEEGFYKFHNWFDDRAWYPLGRIIGGTIYPGLMITSAAIYHVLHFFHITIDIRNVCVFLAPLFSSFTTIVTYHLTKELKDAGAGLLAAAMIAVVPGYISRSVAGSYDNEGIAIFCMLLTYYMWIKAVKTGSICWAAKCALAYFYMVSSWGGYVFLINLIPLHVLVLMLTGRFSHRIYVAYCTVYCLGTILSMQISFVGFQPVLSSEHMAAFGVFGLCQIHAFVDYLRSKLNPQQFEVLFRSVISLVGFVLLTVGALLMLTGKISPWTGRFYSLLDPSYAKNNIPIIASVSEHQPTTWSSYYFDLQLLVFMFPVGLYYCFSNLSDARIFIIMYGVTSMYFSAVMVRLMLVLAPVMCILSGIGVSQVLSTYMKNLDISRPDKKSKKQQDSTYPIKNEVASGMILVMAFFLITYTFHSTWVTSEAYSSPSIVLSARGGDGSRIIFDDFREAYYWLRHNTPEDAKVMSWWDYGYQITAMANRTILVDNNTWNNTHISRVGQAMASTEEKAYEIMRELDVSYVLVIFGGLTGYSSDDINKFLWMVRIGGSTDTGKHIKENDYYTPTGEFRVDREGSPVLLNCLMYKMCYYRFGQVYTEAKRPPGFDRVRNAEIGNKDFELDVLEEAYTTEHWLVRIYKVKDLDNRGLSRT
Regarding B2, in test [7], the binding result is “binds”.
